# The list shows a part of the results.
# Target: T1, OsSMF1 (Oryza sativa, UniProt Q6ZLB0 1-436)
# T1 sequence: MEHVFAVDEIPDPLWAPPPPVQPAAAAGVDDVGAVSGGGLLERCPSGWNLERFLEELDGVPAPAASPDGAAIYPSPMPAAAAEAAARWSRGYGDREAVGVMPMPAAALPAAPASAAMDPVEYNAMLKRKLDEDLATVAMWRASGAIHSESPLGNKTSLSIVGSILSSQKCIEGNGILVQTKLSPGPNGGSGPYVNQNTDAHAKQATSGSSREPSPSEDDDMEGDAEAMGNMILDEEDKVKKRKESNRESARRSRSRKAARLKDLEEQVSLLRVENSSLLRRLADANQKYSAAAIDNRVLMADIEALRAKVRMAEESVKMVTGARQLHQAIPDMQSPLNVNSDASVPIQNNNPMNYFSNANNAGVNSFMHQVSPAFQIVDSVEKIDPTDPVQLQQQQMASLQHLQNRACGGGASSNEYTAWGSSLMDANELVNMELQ
# Experiment: protein-binding microarray (RPBM); PBS, 2% BSA, 51.3 ng/ul salmon testes DNA, 50 uM zinc acetate, 200 nM TF, 25 C, 1 h; high values mean tight binding
# Settings: protein: recombinant; tags: N-terminal polyhistidine and DsRed monomer fusion (pET32a); chain copies: 2; label: CyDye5-dUTP incorporated in the synthesized complementary strand; 3' TTTTT single-stranded linker to array surface; dsDNA, one strand shown
# In short: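 Ni–NTA purification followed expression in E. coli BL21-CodonPlus of transcription factors fused N-terminally to a polyhistidine tag and DsRed. At 200 nM in PBS with 2% BSA, salmon testes DNA and 50 µM zinc acetate, the protein was incubated for 1 h at 25 °C with a custom Agilent array that had been primer-extended with Cy5-dUTP and blocked with 2% BSA. After washing, the array was read on an Axon 4000B scanner. The binding signal is per-feature fluorescence intensity in arbitrary units.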
row,Sequence,binding signal
1,GAGTCAATAATATATGGGTCCCGCTTGCTGACTCAGCTGGCGGAGTCACCTAGTGCAG,38600 fluorescence intensity (a.u.)
2,GAAAACCGAGTCAAATACAAATGACGCACCAAAATATCGGCGGAGTCACCTAGTGCAG,6040 fluorescence intensity (a.u.)
3,CCCGATCCGGGTCAAATCGTCCGACTCATCGGGACAATCTCGGAGTCACCTAGTGCAG,3500 fluorescence intensity (a.u.)
4,CTGGACACCTCACGAAGTCTCAAACTGCTGTTTGTTCTCACGGAGTCACCTAGTGCAG,4230 fluorescence intensity (a.u.)
5,CTGCAACAATTTGTCCTTTTCATTTGTCTTGCAGTTCTTGCGGAGTCACCTAGTGCAG,3140 fluorescence intensity (a.u.)
6,AAGGAAAAGGCCCGCGTGGGCTGAGCGTGCGCCGGTTCACCGGAGTCACCTAGTGCAG,3600 fluorescence intensity (a.u.)
7,GTCGTTGTTGTCAATAGAGCACGTCATGTTCAGGTTAGGCCGGAGTCACCTAGTGCAG,8250 fluorescence intensity (a.u.)
8,ACGCGGCCGACCCGCGCGCCTCGATGCGCGAGCCCATCCGCGGAGTCACCTAGTGCAG,3170 fluorescence intensity (a.u.)
9,GTTAAATATTGACAAAATTTAGCATCAAAACCGTAGAGACCGGAGTCACCTAGTGCAG,18100 fluorescence intensity (a.u.)
10,TCTCACGATAGGCTGATCTGACCGTCCACGTGTCCCATGCCGGAGTCACCTAGTGCAG,17000 fluorescence intensity (a.u.)
11,GATCCTTATTTGAAGTGAGCTATTTTCTTTATTTTAACATCGGAGTCACCTAGTGCAG,30800 fluorescence intensity (a.u.)
12,TCCCGATCGACGCGTGCATGGCGGCGAGCCTTCTGTCCCACGGAGTCACCTAGTGCAG,3330 fluorescence intensity (a.u.)
13,TGGTCAGGTGGAGGCATCGGTCGCCACGACGTGCGATTTCCGGAGTCACCTAGTGCAG,3770 fluorescence intensity (a.u.)
14,AAAAGACTTATTCCCAACTCAGATTGACTCAGCCCATCTCCGGAGTCACCTAGTGCAG,8390 fluorescence intensity (a.u.)
15,CTGCCATCTTCTCCTTTAAATACGTCATCGCTTAATTTCCCGGAGTCACCTAGTGCAG,11800 fluorescence intensity (a.u.)
16,GTCCTTCCTGGCCGTTGTCGACCGCGTGGCCGTCGCCGAGCGGAGTCACCTAGTGCAG,3740 fluorescence intensity (a.u.)
17,ACGGCAGGAACATCCGGAGGCGGTGGAGGCAGGCGTGGCGCGGAGTCACCTAGTGCAG,3900 fluorescence intensity (a.u.)
18,ACTTGCTACTTCCTCGTTGCATCCGTGGCATTTGGGCTAGCGGAGTCACCTAGTGCAG,3830 fluorescence intensity (a.u.)
19,GATATATATACGCGTTCATCAGCGTACGTTCTTATAGCTACGGAGTCACCTAGTGCAG,40100 fluorescence intensity (a.u.)
20,AATATCATCCACCAAAATCAACTGCCGCCGAAACCTCCCACGGAGTCACCTAGTGCAG,3260 fluorescence intensity (a.u.)
21,TAGGATACCACTAGGGTGCCACGTATGCTGATCATCCTCTCGGAGTCACCTAGTGCAG,6210 fluorescence intensity (a.u.)

# Another view of part of the listing above.
row	Sequence	binding signal
4	CTGGACACCTCACGAAGTCTCAAACTGCTGTTTGTTCTCACGGAGTCACCTAGTGCAG	4230 fluorescence intensity (a.u.)
5	CTGCAACAATTTGTCCTTTTCATTTGTCTTGCAGTTCTTGCGGAGTCACCTAGTGCAG	3140 fluorescence intensity (a.u.)

# The listing continues.

row,Sequence,binding signal
1,TCAACGGCGTCAAACATTTTGAAACGGAGGGAGTATTAGACGGAGTCACCTAGTGCAG,11500 fluorescence intensity (a.u.)
2,AGGCATTTCTGCATCACCACGTCAATTATAAAGCTTGTAGCGGAGTCACCTAGTGCAG,6300 fluorescence intensity (a.u.)
3,CGAAAGCAGAACACACTACTACAGTGACGCAACTTCCCTCCGGAGTCACCTAGTGCAG,4800 fluorescence intensity (a.u.)
4,ACGATACCTCCTAGACATGATCTTCCACCTCAAACTATGACGGAGTCACCTAGTGCAG,20700 fluorescence intensity (a.u.)
5,TAGTAGTAAAACATTTACACAGATCTGAATCATCATCATCCGGAGTCACCTAGTGCAG,3920 fluorescence intensity (a.u.)
6,CTCCGCGTCGCGCACACGCCACGCAAGAGGACCAGGTCGGCGGAGTCACCTAGTGCAG,7100 fluorescence intensity (a.u.)
7,AACCACCTTCCTGCGTTGATGACCACTGCTGATCCTGGTGCGGAGTCACCTAGTGCAG,3380 fluorescence intensity (a.u.)
8,GACGGCAGGCTTGATGGTGACCGTGGCGAGGGCAGGAGCTCGGAGTCACCTAGTGCAG,3810 fluorescence intensity (a.u.)
9,GGCTGACAGATCTGCTGATGTAGTCGGCTTCACCTCCAGCCGGAGTCACCTAGTGCAG,4160 fluorescence intensity (a.u.)
10,TGTATTTGCTCTCATTGAATCTAGTCACATTCTGAATCTCCGGAGTCACCTAGTGCAG,4820 fluorescence intensity (a.u.)
11,ACCGAAACGCTCCGCCCGTAATTTCTGCCGCCGACGCGGCCGGAGTCACCTAGTGCAG,3950 fluorescence intensity (a.u.)
12,CCCGTCAACGCCACCTCACCGTTGACGTTGCCACTCTCTTCGGAGTCACCTAGTGCAG,12300 fluorescence intensity (a.u.)
13,AACGTGGGAGGAAATGTTCTGCTAGGAATAACTTGAATAACGGAGTCACCTAGTGCAG,26600 fluorescence intensity (a.u.)
14,CAGTAGTGTTGGAGGAAGTGCCAGGTGGTGAGGCAGCAGCCGGAGTCACCTAGTGCAG,30600 fluorescence intensity (a.u.)
15,AATATGTTTGTTTTACACTTTTGTTGGGTGAGTCATAGATCGGAGTCACCTAGTGCAG,9710 fluorescence intensity (a.u.)
16,GTTCGCGCGCAGGCCGGTGACGCTCCCGTCACCGGCGGCCCGGAGTCACCTAGTGCAG,3180 fluorescence intensity (a.u.)
17,AAGCTACCCAAAAGACCCTGTGCAACAGTGCAGGGTTGGACGGAGTCACCTAGTGCAG,5910 fluorescence intensity (a.u.)
18,GATCAACCTTATTTCTGCAAGCAAATCAAAGAAACAAGCACGGAGTCACCTAGTGCAG,41700 fluorescence intensity (a.u.)
19,GGGCAAATGTGTATCATCACTTATACTTGGCACTAACTTGCGGAGTCACCTAGTGCAG,3230 fluorescence intensity (a.u.)
20,TTTGGGGTGAAAGTGCATGTGCGCATGGAAGTCGATTACGCGGAGTCACCTAGTGCAG,3300 fluorescence intensity (a.u.)
21,CTATTTCAGTTGTGTTTGTGCGTGTCTGTACTTTATGTTTCGGAGTCACCTAGTGCAG,3400 fluorescence intensity (a.u.)

# — paper PMC7819943, “Rice protein-binding microarrays: a tool to detect cis-acting elements near promoter regions in rice”
